Source: PubChem BioAssay AID1259308 (NCATS, 2017)
The deposit covers about 59,000 reagents; shown is a random part of them. Of all reagents, about 1,510 (2.6%) were called active. 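Calls use total luciferase alone and ignore viability, so some active siRNAs may act by altering cell number.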 A number with no mark means an inactive call. The numbers tell different reagents against one gene apart. Further read-outs or replicates are left out here. No sequences are given here.

Purpose: 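Knock-downs that increase output of a recombinant reporter protein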 (primary screen)
Cell system: human HEK293 embryonic kidney cells stably expressing firefly luciferase (HEK-CMV-Luc2-Hygro)
Reagent: single siRNA against human genes, 0.8 pmol siRNA per well
Time to read-out: 72 h
Measurement: 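Reporter luminescence and viable-cell signal on separate replicate plates, given as percent of non-targeting control and median/MAD z-scores, plus per-cell luciferase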
Direction: total luciferase, z-score: higher = more reporter protein produced
Hit rule: 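Active when the median/MAD z-score for overall luciferase is greater than 3; a gene was taken forward for validation with new siRNAs if at least two of its three siRNAs passed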
Calls: active = raised luciferase; inactive = no rise

total luciferase, z-score, by target gene and reagent
PVR: #1 -2.3; #2 -0.096; #3 -0.0843
FANCD2: #1 1.44; #2 -1.4; #3 -0.397
SCRN2: #1 0.387; #2 -0.952; #3 -0.854
GADD45A: #1 -1.06; #2 1.24; #3 -1.11
UGT2B7: #1 0.0739; #2 0.227; #3 0.515
SLC30A2: #1 0.441; #2 -0.756; #3 0.28
FAM153CP: #1 -0.399; #2 -0.9; #3 1.2
SUGP1: #1 -0.969; #2 2.31; #3 -0.331
NDUFA7: #1 -0.429; #2 0.508; #3 -0.00801
DHRS2: #1 3.16 (active); #2 2.52; #3 -0.0815
LRRN3: #1 -0.627; #2 2.74; #3 -0.56
SRP14: #1 -0.944; #2 -1.81; #3 -0.6
SREK1IP1: #1 1.39; #2 -0.52; #3 -0.784
DYNLT5: #1 1.33; #2 -0.536; #3 0.698
TRIM23: #1 1.94; #2 -0.39; #3 -1.15
ARMH3: #1 -0.988; #2 0.19; #3 0.644
FAM124A: #1 -0.306; #2 -0.3; #3 0.489
C1orf220: #1 0.0979; #2 -0.158; #3 0.204
BPIFB1: #1 0.809; #2 -0.94; #3 1.52

Taken from above.
For “total luciferase, z-score”, SRP14 #2 shows -1.81
For “total luciferase, z-score”, ARMH3 #3 shows 0.644
FAM153CP #1, total luciferase, z-score: -0.399
FAM153CP #2, total luciferase, z-score → -0.9
